Results on 35 molecules are retold here after PubChem BioAssay AID1487 (National Center for Advancing Translational Sciences (NCATS), 2009).

The nature of this assay: qHTS Assay for Modulators of Lamin A Splicing. As to conditions: HeLa LMNA splicing GFP/RFP minigene ratio, 48 h. In short, it runs like this:
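S3 HeLa cells stably expressing lamin A-EGFP splicing minigene plus DsRed2, 600 cells/well, 48 h compound exposure at 37C. Laser-scanning cytometry; analysed as GFP (500-530 nm)/RFP (575-640 nm) total intensity ratio; 0.5% DMSO vehicle.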

Setting [1] is: measured here: GFP splicing reporter channel.
The mark [2] stands for this setting: measured here: RFP viability control channel.

This is one part of the list. The main result of the screen is listed elsewhere. These columns were measured beside it and carry no call. Most of these compounds were active or inconclusive in the main read-out, so they are no random draw. Words in brackets tell the shape of the fitted curve; partial curves, single points and poor fits give uncertain potencies.

For orientation: AC50 means the concentration at which the activity in the assay is half-maximal. As to `CCc1ccc(CNCCc2ccc(F)cc2)cc1`, under setting [1], the AC50 was 6.31 µM [rising, single point].
Turning to `COc1ccc(-c2nnc3sc(C4CCCCC4)nn23)cc1OC`, under setting [2], the AC50 was 35.5 µM [rising, single point].
Take `C=CCO[C@@H](Cn1ccnc1)c1ccc(Cl)cc1Cl`: the AC50 under setting [1] was 14.1 µM [falling, single point] and the AC50 under setting [2] was 14.1 µM [falling, single point].
For the molecule `COc1cc(/C=C/[N+](=O)[O-])ccc1O`, under setting [2], the AC50 was 35.5 µM [rising, single point].
In the case of `CCCCCCC[n+]1ccc(-c2cc[n+](CCCCCCC)cc2)cc1`, the AC50 under setting [1] is 17.8 µM [rising, partial curve] and the AC50 under setting [2] was 14.1 µM [rising, partial curve].
In the case of `CC(C)n1c(/C=C/[C@H](O)C[C@H](O)CC(=O)O)c(-c2ccc(F)cc2)c2ccccc21`, the AC50 under setting [1] was 0.355 µM [rising, full curve, poor fit].
As for `O=c1c2ccccc2nc(-c2ccoc2)n1-c1ccccc1Cl`, under setting [2], the AC50 is 14.1 µM [rising, single point].
Regarding `C[C@]12CC[C@@H](O)C[C@@H]1CC[C@@H]1[C@@H]2CC[C@]2(C)[C@@H](O)CC[C@@H]12`, the AC50 was 17.8 µM [rising, single point] under setting [1] and 25.1 µM [falling, partial curve] under setting [2].
With `O=c1c2ccccc2nc(/C=C/c2ccccc2)n1-c1ccccc1F`, the AC50 under setting [2] was 2.82 µM [rising, full curve, poor fit].
As for `Cc1[nH]n(-c2ccccc2)c(=O)c1C(c1ccc([N+](=O)[O-])cc1)c1c(C)[nH]n(-c2ccccc2)c1=O`, the concentration at half-maximal activity (AC50) under setting [2] is 7.08 µM [rising, partial curve].
Take `O=c1[nH]c(=O)n(CCC2=CCCCC2)c(O)c1C=NCCCn1ccnc1`: the AC50 under setting [2] is 0.282 µM [rising, full curve, poor fit].
Same read-out and setting: the value for `CN1CCN(c2cccc3c2C(=O)c2ccccc2C3=O)CC1` was 12.6 µM [rising, partial curve, poor fit]; that for `CCCCn1c(NC(=O)c2ccco2)c(C(=O)OCC)c2nc3ccccc3nc21` was 12.6 µM [falling, partial curve, poor fit].
Turning to `COc1cc(C(CN)CC(=O)O)ccc1O` (configuration not stated), under setting [1], the AC50 is 0.0141 µM [rising, full curve, poor fit].
Take `Cc1ccccc1N1CCN(S(=O)(=O)c2nnc(NC(=O)c3ccc(Cl)cc3)s2)CC1`: the AC50 under setting [2] is 0.0126 µM [falling, full curve, poor fit].
Still for that read-out and setting: under `O=C(O)c1ccccc1SCC(=O)N1c2ccccc2Sc2ccccc21` stands 35.5 µM [rising, single point].
With `OC1CCCCC1N1CCC(c2ccccc2)CC1` (configuration not stated), the AC50 under setting [1] was 0.158 µM [rising, full curve].
For `CCCCCCCCCC[Si](C)(C)CCC(=O)NC(Cc1ccc(C)cc1)c1ccccc1` (configuration not stated), under setting [2], the AC50 was 0.000891 µM [falling, full curve, poor fit].
In the case of `CCCCc1nc2ccccc2c(=O)n1-c1ccc(O)cc1`, the AC50 under setting [2] is 35.5 µM [rising, single point].
Consider `O=C(c1ccc2c(c1)ncn2C1CCCCC1)N1CCC2(CC1)OCCO2`, for which the AC50 under setting [1] is 0.0316 µM [falling, single point].
As for `NCCc1ccc(S(=O)(=O)F)cc1`, the AC50 was 17.8 µM [rising, single point] under setting [1] and 6.31 µM [falling, partial curve, poor fit] under setting [2].
For `O=C(c1cc(F)ccc1F)C1CCCN(Cc2ccc3nonc3c2)C1` (configuration not stated), the AC50 under setting [1] was 0.126 µM [falling, full curve, poor fit].
Consider `CCN(CC)S(=O)(=O)c1ccc(NN=C(C#N)C#N)cc1`, for which the AC50 runs as follows: under setting [1], 14.1 µM [rising, single point]; under setting [2], 31.6 µM [rising, single point].
For `Cc1ccccc1-n1c(C)nc2ccccc2c1=O`, the AC50 under setting [1] is 1.26 µM [falling, partial curve] and the AC50 under setting [2] was 0.316 µM [falling, partial curve].
As to `Cc1ccc(Cn2c(C)c3cnn(CC(=O)N4CCC5(CC4)OCCO5)c(=O)c3c2C)cc1`, the AC50 under setting [2] was 11.2 µM [rising, partial curve].
For `CCC(=NCCc1c[nH]c2ccccc12)c1c(O)n(-c2ccc(C)cc2)c(=O)[nH]c1=O`, the half-maximal activity concentration (AC50) under setting [1] was 2.82 µM [rising, partial curve, poor fit] and the half-maximal activity concentration (AC50) under setting [2] is 20 µM [rising, partial curve].
`O=Cc1cn(Cc2cccc([N+](=O)[O-])c2)c2ccccc12`: the AC50 runs as follows: under setting [1], 31.6 µM [rising, single point]; under setting [2], 35.5 µM [rising, single point].
On to `CCC(C)NC(=O)c1c(N)n(Cc2ccc3c(c2)OCO3)c2nc3ccccc3nc12` (configuration not stated), for which, under setting [2], the AC50 was 11.2 µM [rising, partial curve].
With `CN[C@@H]1C[C@@H](c2ccc(Cl)c(Cl)c2)c2ccccc21`, the AC50 is 11.2 µM [falling, partial curve] under setting [1] and 11.2 µM [falling, partial curve] under setting [2].
For `Cc1ccccc1OP(N)(=O)Oc1ccccc1C`, the AC50 under setting [1] is 22.4 µM [falling, single point].
`COc1ccccc1NC(=O)N(Cc1ccc2c(c1)OCO2)C1CCN(Cc2ccccc2)CC1`: the half-maximal activity concentration (AC50) was 7.94 µM [falling, partial curve] under setting [1] and 7.08 µM [falling, partial curve] under setting [2].
On to `CCN1C[C@]2(COC)CC[C@H](O)[C@@]34[C@@H]5C[C@H]6[C@@H](OC)[C@H]5[C@](O)(C[C@@H]6OC)[C@@](O)([C@@H](OC)[C@H]23)[C@@H]14`, for which the AC50 was 3.16 µM [falling, single point] under setting [1] and 1.78 µM [falling, single point] under setting [2].
With `CCOc1ccc(-c2cc(C(=O)N3CCN(c4cccc(C(F)(F)F)c4)CC3)c3ccccc3n2)cc1`, under setting [2], the AC50 is 20 µM [rising, single point].
As to `O=C1/C(=C\c2ccc([N+](=O)[O-])cc2)N2CCC1CC2`, the AC50 is, setting by setting: under setting [1], 11.2 µM [rising, partial curve]; under setting [2], 11.2 µM [rising, partial curve].
Regarding `CCCCOc1ccc(CNC(=O)c2cc3n(n2)CCCN(Cc2ccc(C)cc2)C3=O)cc1`, under setting [2], the AC50 was 14.1 µM [rising, partial curve].
